Data published in publication PMC8929021.

T1: KIN (Kin17) fused to BirA* (human) (UniProt O60870)
T1 sequence: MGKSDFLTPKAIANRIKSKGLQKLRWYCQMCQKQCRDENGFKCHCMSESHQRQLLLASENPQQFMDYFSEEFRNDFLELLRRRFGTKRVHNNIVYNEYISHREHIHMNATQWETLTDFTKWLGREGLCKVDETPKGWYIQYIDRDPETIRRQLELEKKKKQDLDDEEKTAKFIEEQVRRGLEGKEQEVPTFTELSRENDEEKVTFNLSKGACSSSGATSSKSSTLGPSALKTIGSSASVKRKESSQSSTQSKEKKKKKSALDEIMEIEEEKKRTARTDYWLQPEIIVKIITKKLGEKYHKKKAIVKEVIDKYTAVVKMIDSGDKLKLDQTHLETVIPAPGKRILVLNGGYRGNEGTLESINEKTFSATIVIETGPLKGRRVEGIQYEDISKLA

T2: BUD13 fused to BirA*, Q9BRD0
T2 chain: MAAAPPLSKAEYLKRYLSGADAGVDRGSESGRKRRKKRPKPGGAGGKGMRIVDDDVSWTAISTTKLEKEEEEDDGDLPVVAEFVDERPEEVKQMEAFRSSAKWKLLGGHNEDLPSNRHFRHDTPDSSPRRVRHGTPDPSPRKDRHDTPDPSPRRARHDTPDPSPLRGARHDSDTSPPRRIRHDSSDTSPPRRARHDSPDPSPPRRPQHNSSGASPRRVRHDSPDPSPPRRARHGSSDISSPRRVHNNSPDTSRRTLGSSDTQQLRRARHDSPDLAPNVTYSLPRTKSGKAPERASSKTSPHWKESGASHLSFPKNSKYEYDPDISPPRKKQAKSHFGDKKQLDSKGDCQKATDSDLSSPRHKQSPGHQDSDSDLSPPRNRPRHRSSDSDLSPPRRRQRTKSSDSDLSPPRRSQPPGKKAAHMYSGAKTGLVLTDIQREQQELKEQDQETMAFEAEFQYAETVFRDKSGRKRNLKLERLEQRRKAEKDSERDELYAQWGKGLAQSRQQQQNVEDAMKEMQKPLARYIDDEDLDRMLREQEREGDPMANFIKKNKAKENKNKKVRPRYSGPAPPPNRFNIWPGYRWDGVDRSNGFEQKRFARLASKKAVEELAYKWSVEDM

T3: BUD13 fused to BirA* (UniProt Q9BRD0)
T3 sequence: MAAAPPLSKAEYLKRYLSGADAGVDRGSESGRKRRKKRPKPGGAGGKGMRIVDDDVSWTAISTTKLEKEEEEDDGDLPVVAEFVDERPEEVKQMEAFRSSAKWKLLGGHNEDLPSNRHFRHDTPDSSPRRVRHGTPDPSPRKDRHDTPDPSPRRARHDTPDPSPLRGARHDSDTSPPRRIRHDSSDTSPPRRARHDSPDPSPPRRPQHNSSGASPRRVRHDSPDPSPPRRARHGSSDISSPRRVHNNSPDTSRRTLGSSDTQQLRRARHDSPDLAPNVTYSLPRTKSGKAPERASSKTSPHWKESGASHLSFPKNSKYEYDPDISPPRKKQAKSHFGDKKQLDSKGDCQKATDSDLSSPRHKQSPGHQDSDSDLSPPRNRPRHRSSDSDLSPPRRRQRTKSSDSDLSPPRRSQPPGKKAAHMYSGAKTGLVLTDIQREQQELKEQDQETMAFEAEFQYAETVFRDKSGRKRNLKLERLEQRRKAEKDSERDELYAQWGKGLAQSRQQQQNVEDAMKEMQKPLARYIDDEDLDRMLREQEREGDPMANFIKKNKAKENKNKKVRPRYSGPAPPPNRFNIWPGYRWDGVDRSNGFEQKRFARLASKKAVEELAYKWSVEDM


Assays:
Assay in all cases: proximity labelling; BioID-MS: BirA* fusion bait in stable Flp-In T-Rex 293 or HeLa cells, tetracycline 1 μg/mL and biotin 75 μM for 24 h; lysis in modified RIPA buffer, streptavidin-agarose beads 4 °C 3 h, on-bead trypsin digestion, LC-MS/MS; GFP-NLS as control, SAINTexpress FDR threshold 0.1; for KIN also in HeLa cells synchronised by double thymidine block (S, G2/M, G1) and 2 or 24 h after 10 Gy gamma irradiation
[1] = target: T1, KIN (Kin17) fused to BirA* (human)
[2] = target: T2, BUD13 fused to BirA*, Q9BRD0; conditions: remark: other sources report otherwise
BUD13 fused to BirA* = target: T3, BUD13 fused to BirA*

binding (BUD13 fused to BirA*) | Binder | other results
– | SNIP1/Pml1 (protein, UniProt Q8TAD8 1-396) MKAVKSERERGSRRRHRDGDVVLPAGVVVKQERLSPEVAPPAHRRPDHSGGSPSPPTSEPARSGHRGNRARGVSRSPPKKKNKASGRRSKSPRSKRNRSPHHSTVKVKQEREDHPRRGREDRQHREPSEQEHRRARNSDRDRHRGHSHQRRTSNERPGSGQGQGRDRDTQNLQAQEEEREFYNARRREHRQRNDVGGGGSESQELVPRPGGNNKEKEVPAKEKPSFELSGALLEDTNTFRGVVIKYSEPPEARIPKKRWRLYPFKNDEVLPVMYIHRQSAYLLGRHRRIADIPIDHPSCSKQHAVFQYRLVEYTRADGTVGRRVKPYIIDLGSGNGTFLNNKRIEPQRYYELKEKDVLKFGFSSREYVLLHESSDTSEIDRKDDEDEEEEEEVSDS | binding [1]: no binding
– | SNIP1/Pml1, Q8TAD8 1-396 (protein) MKAVKSERERGSRRRHRDGDVVLPAGVVVKQERLSPEVAPPAHRRPDHSGGSPSPPTSEPARSGHRGNRARGVSRSPPKKKNKASGRRSKSPRSKRNRSPHHSTVKVKQEREDHPRRGREDRQHREPSEQEHRRARNSDRDRHRGHSHQRRTSNERPGSGQGQGRDRDTQNLQAQEEEREFYNARRREHRQRNDVGGGGSESQELVPRPGGNNKEKEVPAKEKPSFELSGALLEDTNTFRGVVIKYSEPPEARIPKKRWRLYPFKNDEVLPVMYIHRQSAYLLGRHRRIADIPIDHPSCSKQHAVFQYRLVEYTRADGTVGRRVKPYIIDLGSGNGTFLNNKRIEPQRYYELKEKDVLKFGFSSREYVLLHESSDTSEIDRKDDEDEEEEEEVSDS | binding [2]: no binding
binds | GPKOW (protein, UniProt Q92917 1-476) MADSKEGVLPLTAASTAPISFGFTRTSARRRLADSGDGAGPSPEEKDFLKTVEGRELQSVKPQEAPKELVIPLIQNGHRRQPPARPPGPSTDTGALADGVVSQAVKELIAESKKSLEERENAGVDPTLAIPMIQKGCTPSGEGADSEPRAETVPEEANYEAVPVEAYGLAMLRGMGWKPGEGIGRTFNQVVKPRVNSLRPKGLGLGANLTEAQALTPTGPSRMPRPDEEQEKDKEDQPQGLVPGGAVVVLSGPHRGLYGKVEGLDPDNVRAMVRLAVGSRVVTVSEYYLRPVSQQEFDKNTLDLRQQNGTASSRKTLWNQELYIQQDNSERKRKHLPDRQDGPAAKSEKAAPRSQHWLHRDLRVRFVDNMYKGGQYYNTKMIIEDVLSPDTCVCRTDEGRVLEGLREDMLETLVPKAEGDRVMVVLGPQTGRVGHLLSRDRARSRALVQLPRENQVVELHYDAICQYMGPSDTDDD | –
binds | CWC22 (protein, UniProt Q9HCG8 1-908) MKSSVAQIKPSSGHDRRENLNSYQRNSSPEDRYEEQERSPRDRDYFDYSRSDYEHSRRGRSYDSSMESRNRDREKRRERERDTDRKRSRKSPSPGRRNPETSVTQSSSAQDEPATKKKKDELDPLLTRTGGAYIPPAKLRMMQEQITDKNSLAYQRMSWEALKKSINGLINKVNISNISIIIQELLQENIVRGRGLLSRSVLQAQSASPIFTHVYAALVAIINSKFPQIGELILKRLILNFRKGYRRNDKQLCLTASKFVAHLINQNVAHEVLCLEMLTLLLERPTDDSVEVAIGFLKECGLKLTQVSPRGINAIFERLRNILHESEIDKRVQYMIEVMFAVRKDGFKDHPIILEGLDLVEEDDQFTHMLPLEDDYNPEDVLNVFKMDPNFMENEEKYKAIKKEILDEGDTDSNTDQDAGSSEEDEEEEEEEGEEDEEGQKVTIHDKTEINLVSFRRTIYLAIQSSLDFEECAHKLLKMEFPESQTKELCNMILDCCAQQRTYEKFFGLLAGRFCMLKKEYMESFEGIFKEQYDTIHRLETNKLRNVAKMFAHLLYTDSLPWSVLECIKLSEETTTSSSRIFVKIFFQELCEYMGLPKLNARLKDETLQPFFEGLLPRDNPRNTRFAINFFTSIGLGGLTDELREHLKNTPKVIVAQKPDVEQNKSSPSSSSSASSSSESDSSDSDSDSSDSSSESSSEESDSSSISSHSSASANDVRKKGHGKTRSKEVDKLIRNQQTNDRKQKERRQEHGHQETRTERERRSEKHRDQNSSGSNWRDPITKYTSDKDVPSERNNYSRVANDRDQEMHIDLENKHGDPKKKRGERRNSFSENEKHTHRIKDSENFRRKDRSKSKEMNRKHSGSRSDEDRYQNGAERRWEKSSRYSEQSRESKKNQDRRREKSPAKQK | –
binds | WDR3 (protein, UniProt Q9UNX4 1-943) MGLTKQYLRYVASAVFGVIGSQKGNIVFVTLRGEKGRYVAVPACEHVFIWDLRKGEKILILQGLKQEVTCLCPSPDGLHLAVGYEDGSIRIFSLLSGEGNVTFNGHKAAITTLKYDQLGGRLASGSKDTDIIVWDVINESGLYRLKGHKDAITQALFLREKNLLVTSGKDTMVKWWDLDTQHCFKTMVGHRTEVWGLVLLSEEKRLITGASDSELRVWDIAYLQEIEDPEEPDPKKIKGSSPGIQDTLEAEDGAFETDEAPEDRILSCRKAGSIMREGRDRVVNLAVDKTGRILACHGTDSVLELFCILSKKEIQKKMDKKMKKARKKAKLHSSKGEEEDPEVNVEMSLQDEIQRVTNIKTSAKIKSFDLIHSPHGELKAVFLLQNNLVELYSLNPSLPTPQPVRTSRITIGGHRSDVRTLSFSSDNIAVLSAAADSIKIWNRSTLQCIRTMTCEYALCSFFVPGDRQVVIGTKTGKLQLYDLASGNLLETIDAHDGALWSMSLSPDQRGFVTGGADKSVKFWDFELVKDENSTQKRLSVKQTRTLQLDEDVLCVSYSPNQKLLAVSLLDCTVKIFYVDTLKFFLSLYGHKLPVICMDISHDGALIATGSADRNVKIWGLDFGDCHKSLFAHDDSVMYLQFVPKSHLFFTAGKDHKIKQWDADKFEHIQTLEGHHQEIWCLAVSPSGDYVVSSSHDKSLRLWERTREPLILEEEREMEREAEYEESVAKEDQPAVPGETQGDSYFTGKKTIETVKAAERIMEAIELYREETAKMKEHKAICKAAGKEVPLPSNPILMAYGSISPSAYVLEIFKGIKSSELEESLLVLPFSYVPDILKLFNEFIQLGSDVELICRCLFFLLRIHFGQITSNQMLVPVIEKLRETTISKVSQVRDVIGFNMAGLDYLKRECEAKSEVMFFADATSHLEEKKRKRKKREKLILTLT | –
binds | DHX16 (protein, UniProt O60231 1-1041) MATPAGLERWVQDELHSVLGLSERHVAQFLIGTAQRCTSAEEFVQRLRDTDTLDLSGPARDFALRLWNKVPRKAVVEKPARAAEREARALLEKNRSYRLLEDSEESSEETVSRAGSSLQKKRKKRKHLRKKREEEEEEEASEKGKKKTGGSKQQTEKPESEDEWERTERERLQDLEERDAFAERVRQRDKDRTRNVLERSDKKAYEEAQKRLKMAEEDRKAMVPELRKKSRREYLAKREREKLEDLEAELADEEFLFGDVELSRHERQELKYKRRVRDLAREYRAAGEQEKLEATNRYHMPKETRGQPARAVDLVEEESGAPGEEQRRWEEARLGAASLKFGARDAASQEPKYQLVLEEEETIEFVRATQLQGDEEPSAPPTSTQAQQKESIQAVRRSLPVFPFREELLAAIANHQVLIIEGETGSGKTTQIPQYLFEEGYTNKGMKIACTQPRRVAAMSVAARVAREMGVKLGNEVGYSIRFEDCTSERTVLRYMTDGMLLREFLSEPDLASYSVVMVDEAHERTLHTDILFGLIKDVARFRPELKVLVASATMDTARFSTFFDDAPVFRIPGRRFPVDIFYTKAPEADYLEACVVSVLQIHVTQPPGDILVFLTGQEEIEAACEMLQDRCRRLGSKIRELLVLPIYANLPSDMQARIFQPTPPGARKVVVATNIAETSLTIEGIIYVLDPGFCKQKSYNPRTGMESLTVTPCSKASANQRAGRAGRVAAGKCFRLYTAWAYQHELEETTVPEIQRTSLGNVVLLLKSLGIHDLMHFDFLDPPPYETLLLALEQLYALGALNHLGELTTSGRKMAELPVDPMLSKMILASEKYSCSEEILTVAAMLSVNNSIFYRPKDKVVHADNARVNFFLPGGDHLVLLNVYTQWAESGYSSQWCYENFVQFRSMRRARDVREQLEGLLERVEVGLSSCQGDYIRVRKAITAGYFYHTARLTRSGYRTVKQQQTVFIHPNSSLFEQQPRWLLYHELVLTTKEFMRQVLEIESSWLLEVAPHYYKAKELEDPHAKKMPKKIGKTREELG | –

Results are given in words; binding and its absence hold for the method and conditions named. In cells and extracts the contact can be indirect. A yes stands for co-enrichment or nearness to the bait. Other partners may have been found. For part of these data: A no says only that the protein was not detected with the bait. Sequences can lack the tags named with a protein.
